In PubChem BioAssay AID504467 (National Center for Advancing Translational Sciences (NCATS), 2011):
The campaign covered roughly 330,000 compounds. About 7,700 (2.3%) were called active. The shares of active, inactive and inconclusive entries below differ from those in the screen. Calls come from the whole dose curve; as a rule, active = well fitted inhibition curve with a large enough effect; inconclusive = small, poorly fitted or top-dose-only effect, or effect the other way; inactive = flat fitted curve, though single readings scatter. Potencies beside an inconclusive call are fits to weak or partial responses and may not hold up.

Test: qHTS screen for small molecules that inhibit ELG1-dependent DNA repair in human embryonic kidney (HEK293T) cells expressing luciferase-tagged ELG1; note: nearly all actives have a fitted effect of over 55% in size
Conditions: HEK293T ELG1-luciferase reporter, luminescence, 16 h, DNA damage induced by 5-fluorouridine; series mostly up to 46.1 µM
In short: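 DMSO vehicle served as the neutral condition. Each well held 2,000 cells given 5-fluorouridine plus compound; after 16 hr at 37 °C/5% CO2, ONE-Glo was added and luciferase measured 30 min later.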
Potency is the fitted concentration of half-maximal effect.

| Structure (SMILES) | Potency |
| --- | --- |
| COc1ccc(/C=C/C(=O)O)cc1S(=O)(=O)NC1CCS(=O)(=O)C1 (stereo not drawn) | inactive |
| CC(C)(C)NC(=O)CSC(=Nc1cccc(F)c1)NC#N | inactive |
| CC(C)N(C(=S)Nc1cccc(C(F)(F)F)c1)C(C)c1ccccn1 (stereo not drawn) | inactive |
| Cc1cc2cc3c(cc2nc1SCC(=O)OC(C)C)OCO3 | inconclusive: 23.1 µM [inhibitor, single point] |
| CCn1c(SCC(=O)Nc2ccc(NC(=O)c3cccs3)cc2)nnc1-c1cccnc1 | inconclusive: 20.6 µM [inhibitor, single point] |
| CCCCN(CCCC)CC1OCc2ccccc2CO1 | inconclusive: 23.1 µM [inhibitor, partial curve, poor fit] |
| CC(/C=N/Nc1nc(C)cc(C)n1)=C\c1ccc(C(C)C)cc1 | inactive |
| CCCOc1ccc(N2C(=O)CC(N(CCOC34CC5CC(CC(C5)C3)C4)C(C)=O)C2=O)cc1 (stereo not drawn) | inconclusive: 25.9 µM [inhibitor, single point] |
| CCn1c(O)c(/C=N/N=C/c2ccccc2)c2ccc(C3=NNC(=O)CC3)cc21 | active: 25.9 µM |
| CCOC(=O)C1CCN(C(=O)c2cccc(S(=O)(=O)N(C)C3CCCCC3)c2)CC1 | inconclusive: 0.259 µM [inhibitor, single point] |
| CCCCN(CC)Cc1ccc(CNC(=O)Nc2ccc(F)cc2)o1 | inconclusive: 6.51 µM [inhibitor, partial curve, poor fit] |
| Cc1ccc(C(=O)Nc2cnc3sc(C)nn3c2=O)cc1 | inconclusive: 25.9 µM [activator, single point] |
| COc1cccc(NC(=O)CSc2nc3c(sc4ccccc43)c(=O)n2CCCN2CCCC2)c1 | inactive |
| Cc1ccc2nc(NC(=O)c3ccc4c(c3)OCO4)sc2c1 | inconclusive: 1.46 µM [activator, full curve] |
| O=C(COC(=O)c1cncc(Br)c1)Nc1nc(-c2ccc(F)cc2)cs1 | inconclusive: 16.4 µM [activator, partial curve] |
| COc1ccc(NC(=O)N2c3ccc(OC)cc3C(C)=CC2(C)C)cc1 | inconclusive: 16.4 µM [activator, single point] |
| CN(Cc1nc(-c2cccnc2)no1)S(=O)(=O)c1ccc2ccccc2c1 | inactive |
| NC(=O)C1CCN(C(=O)CCSc2ccc(Cl)cc2)CC1 | inconclusive: 16.4 µM [activator, partial curve, poor fit] |
| CCCCCC(=O)Nc1nc(C)c(-c2csc(Nc3ccccc3OC)n2)s1 | inconclusive: 11.6 µM [inhibitor, partial curve, poor fit] |
| CC1(C)CC(=O)C2=C(C1)Nc1ccccc1NC2c1cc(Cl)ccc1O (stereo not drawn) | inactive |
| COc1cc(Cl)ccc1OCc1cc(C(=O)NC(C)Cc2cccnc2)no1 (stereo not drawn) | inconclusive: 14.6 µM [activator, partial curve] |
| COc1cc(OC)cc(-c2c(-c3cccs3)c3cc(-c4ccn[nH]4)ccc3n2C)c1 | inconclusive: 16.4 µM [inhibitor, partial curve, poor fit] |
| Cc1cc(C(=O)N(C2CCCCC2)C2CCCCC2)no1 | inconclusive: 16.4 µM [inhibitor, partial curve, poor fit] |
| COc1ccc(-c2cc(C)no2)cc1S(=O)(=O)N1CCN(C(=O)c2ccco2)CC1 | inactive |
| CCOc1ccc(CN(Cc2ccco2)S(=O)(=O)c2ccc(-n3cnnn3)c(OC)c2)cc1 | inconclusive: 25.9 µM [inhibitor, partial curve, poor fit] |

| Structure (SMILES) | Potency |
| --- | --- |
| Cc1ccc(C(=O)NC(=S)N2CCN(C)CC2)cc1Br | inconclusive: 25.9 µM [inhibitor, single point] |
| COc1ccc(C(=O)Nc2ccc(OC)c(OC)c2)cc1 | inconclusive: 20.6 µM [activator, partial curve] |
| Cc1cccc(NC(=O)CCC(=O)Nc2nnc(C3CCCCC3)s2)c1 | inactive |
| O=C(O)/C=C/C(=O)NCCc1ccccc1 | inconclusive: 29.1 µM [activator, partial curve, poor fit] |
| CCOc1ccc(C(=O)Nc2cc(C)on2)cc1OCC | inactive |
| Cc1cccc(N2CN(Cc3cccnc3)CNC2=S)c1C | inactive |
| CCOC(=O)[C@@H]1[C@H]2COc3cc(OC)ccc3[C@H]2N2C(=O)N(c3cccc(C)c3)C(=O)[C@]12C | inconclusive: 25.9 µM [inhibitor, single point] |
| S=C(NCCCn1ccnc1)Nc1cccc(Cl)c1 | inactive |
| CCSc1nccc(-c2nn(-c3ccc(C)cc3)ccc2=O)n1 | active: 10.3 µM |
| CC1CCc2nc(NC(=O)CN3CCN(Cc4ccc5c(c4)OCO5)CC3)sc2C1 (stereo not drawn) | active: 11.6 µM |
| O=C(Nc1ccccc1F)c1ccc2c(c1)CCN2S(=O)(=O)c1ccccc1 | inactive |
| COc1ccccc1CCC(=O)N(C)CC(=O)Nc1ccc(F)cc1 | inactive |
| COc1ccc(-c2cc(C(=O)N/N=C/c3cccnc3)c3ccccc3n2)cc1 | inconclusive: 9.2 µM [activator, partial curve, poor fit] |
| Cc1ccc(Cl)cc1N1CCN(C2CCCCC2NS(=O)(=O)c2ccccc2)CC1 (stereo not drawn) | inconclusive: 16.4 µM [inhibitor, partial curve, poor fit] |
| CCOc1ccc2nc(N3C(=O)/C(=C/c4ccccc4)NC3=S)sc2c1 | inconclusive: 20.6 µM [activator, partial curve] |
| Cc1ccc2nc(C)c3c(c2c1)N(c1ccccc1)CC3 | inconclusive: 25.9 µM [inhibitor, single point] |
| O=C(NC(=S)N1CCOCC1)c1ccc(F)cc1 | inactive |
| CC(=O)NC(=S)Nc1ccc(NC(=S)NC(=O)/C=C/c2ccco2)cc1 | inactive |
| O=C(COC(=O)c1ccncc1)Nc1cc(S(=O)(=O)N2CCOCC2)ccc1Cl | inactive |
| O=C1O/C(=C/c2ccccc2)c2ccccc21 | inactive |
| CCOC(=O)N1CCN(c2nc(-c3ccc(F)cc3)cs2)CC1 | inactive |
| O=C(Nc1ccc(F)cc1)Nc1nnc(-c2ccccc2)o1 | inactive |
| O=C(NNC(=O)c1cccc(C(F)(F)F)c1)c1ccc(-n2cnnn2)cc1 | inactive |
| Cc1cc(C)nc(N2CCC(C(=O)NCc3ccccc3)CC2)n1 | inactive |
| COc1ccc(CCn2c(C)nc3ccccc3c2=O)cc1OC | inconclusive: 29.1 µM [inhibitor, single point] |

Already shown: six of the compounds above.

| Structure (SMILES) | Potency |
| --- | --- |
| CCOc1ccc(CN(Cc2ccco2)S(=O)(=O)c2ccc(-n3cnnn3)c(OC)c2)cc1 | inconclusive: 25.9 µM [inhibitor, partial curve, poor fit] |
| Cc1ccc(C(=O)NC(=S)N2CCN(C)CC2)cc1Br | inconclusive: 25.9 µM [inhibitor, single point] |
| COc1ccc(C(=O)Nc2ccc(OC)c(OC)c2)cc1 | inconclusive: 20.6 µM [activator, partial curve] |
| Cc1cccc(NC(=O)CCC(=O)Nc2nnc(C3CCCCC3)s2)c1 | inactive |
| O=C(O)/C=C/C(=O)NCCc1ccccc1 | inconclusive: 29.1 µM [activator, partial curve, poor fit] |
| CCOc1ccc(C(=O)Nc2cc(C)on2)cc1OCC | inactive |

The list goes on.

| Structure (SMILES) | Potency |
| --- | --- |
| COc1cc(S(=O)(=O)Nc2cccc(C)c2)ccc1NC(=O)c1ccncc1 | inconclusive: 8.2 µM [inhibitor, partial curve] |
| Cc1ccc2cc(CN(c3cccc(C)c3C)S(=O)(=O)c3ccccc3)c(=O)[nH]c2c1 | inconclusive: 20.6 µM [inhibitor, partial curve, poor fit] |
| CCOc1ccc2oc(C(=O)OCC(=O)NC3CCCC3)c(C)c2c1 | inconclusive: 0.73 µM [activator, single point] |
| COc1cccc(-c2nnc3n2N=C(C(C)(C)C)CS3)c1 | inconclusive: 0.82 µM [inhibitor, full curve] |
| O=C(Nc1nnc(-c2ccccc2)o1)C1CCCCC1 | inconclusive: 29.1 µM [activator, single point] |
| S=C(N/N=C/c1ccc2ncccc2c1)Nc1ccccc1 | inconclusive: 16.4 µM [activator, partial curve] |
| CCC/C=N/NC(=O)c1cccc(Br)c1 | inconclusive: 32.6 µM [activator, partial curve, poor fit] |
| CO[C@H]1C[C@@H]2CC[C@@H](C)[C@@](O)(O2)C(=O)C(=O)N2CCCC[C@H]2C(=O)O[C@H]([C@H](C)C[C@@H]2CC[C@@H](O)[C@H](OC)C2)CC(=O)[C@H](C)C=C(C)[C@@H](O)[C@@H](OC)C(=O)[C@H](C)C[C@H](C)C=CC=CC=C1C | inconclusive: 23.1 µM [inhibitor, single point] |
| O=C(NCc1ccccn1)c1cccc(S(=O)(=O)NCc2ccccc2)c1 | inactive |
| COc1ccccc1NC(=O)COC(=O)COc1cccc2c1OC(C)(C)C2 | inactive |
| COC(=O)Cn1c(=O)c2c(n(Cc3ccccc3)c1=O)N/C(=C/c1ccc(Br)cc1)C2=O | inactive |
| O=S(=O)(Nc1cccc(-c2nc3cccnc3s2)c1)c1cccs1 | inconclusive: 6.51 µM [activator, single point] |
| NNc1nc2ccc(Cl)cc2s1 | inconclusive: 18.4 µM [activator, single point] |
| O=C(CN1C(=O)c2ccccc2C1=O)Nc1cccc(O)c1 | inactive |
| O=C(CN1CCOCC1)Nc1ccc(-c2nc3ccccc3[nH]2)cc1 | inconclusive: 16.4 µM [activator, single point] |
| CCOc1ccc(N/C=C/C(=O)c2ccc(OC)cc2)cc1 | inconclusive: 5.17 µM [activator, partial curve, poor fit] |
| CCOc1ccc(NCC(=O)N/N=C/C=C/c2ccccc2)cc1 | inactive |
| COc1ccc(Nc2nc(N)nc(CSC(=S)N3CCN(C)CC3)n2)cc1 | inactive |
| Cc1ccn2c(NC3CCCCC3)c(-c3cccc(SC4CCCCC4)c3)nc2c1 | inconclusive: 20.6 µM [inhibitor, partial curve] |
| CC(=O)C1C(c2cccc(F)c2)c2c(n[nH]c2C)CC1(C)O (stereo not drawn) | inconclusive: 20.6 µM [activator, single point] |
| N#C/C(=C\c1ccc(N2CCOCC2)o1)C(=O)NCCc1ccccc1 | inactive |
| NNc1nc(-c2ccccc2)nc2sc3c(c12)CCCC3 | inconclusive: 1.3 µM [activator, full curve] |
| Cc1nnc(NC(=O)CSc2cn(CCNC(=O)c3ccccc3)c3ccccc23)s1 | inconclusive: 23.1 µM [inhibitor, single point] |
